# USRE49026
# Target: Δ9-Flag (soluble recombinant Δ9 splice variant of IL-23Rα, Flag-tagged) (human)
# Assay: phage display panning, anti-Flag affinity gel
row,Binder,binding
1,"NSDHWYAYWLIN (peptide, not shown: large carriers) [M13 phage displaying polypeptide no. 60]",binds
2,"NHGSAWQDYYLK (peptide, not shown: large carriers) [M13 phage displaying polypeptide no. 75]",binds
3,"GFAKQWHVDAND (peptide, not shown: large carriers) [M13 phage displaying polypeptide no. 61]",binds
4,"HWQVPTGNHLWS (peptide, not shown: large carriers) [M13 phage displaying polypeptide no. 79]",binds
5,"EPTWQWYWGQYS (peptide, not shown: large carriers) [M13 phage displaying polypeptide no. 66]",binds
6,"AMTWEDWWLYGR (peptide, not shown: large carriers) [M13 phage displaying polypeptide no. 23]",binds

# These are yes or no findings as the source states them, for the method shown. Binding can be weak; no strength is given.
